PubChem BioAssay AID1259308, NCATS, 2017
Here is a random part of about 59,000 reagents tested. About 1,510 of all reagents (2.6%) count as active. 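Calls use total luciferase alone and ignore viability, so some active siRNAs may act by altering cell number.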 The numbers tell different reagents against one gene apart.

Screen: 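Genes whose loss raises luciferase production in HEK293 cells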 (primary screen)
Cell system: human HEK293 embryonic kidney cells stably expressing firefly luciferase (HEK-CMV-Luc2-Hygro)
Reagents: single siRNA against human genes, 0.8 pmol siRNA per well
Time to read-out: 72 h
Measured: 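Luciferase light (ONE-Glo) measured on one replicate plate set and viability (CellTiter-Glo) on the other, scaled to a negative control siRNA, with robust z-scores and luciferase per cell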
Direction: total luciferase, z-score and total luciferase, % of control: higher = more reporter protein produced; luciferase per cell, z-score: higher = more reporter output per viable cell; viable cells, % of control: higher = more viable cells
Active means: 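An siRNA counts as active if its total luciferase robust z-score exceeds 3; genes with two or more such siRNAs out of three were retested with fresh siRNAs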
Calls: active = raised luciferase; inactive = no rise

Target gene | reagent | total luciferase, z-score | total luciferase, % of control | luciferase per cell, z-score | viable cells, % of control | call
OR1N2 (olfactory receptor family 1 subfamily N member 2) | 1 | 0.193 | 85.7 | 0.373 | 86.8 | inactive
OR1N2 (olfactory receptor family 1 subfamily N member 2) | 2 | -0.947 | 63 | -0.707 | 84.9 | inactive
OR1N2 (olfactory receptor family 1 subfamily N member 2) | 3 | 2.42 | 130 | 1.24 | 105 | inactive
FAM114A1 (family with sequence similarity 114 member A1) | 1 | 0.352 | 88.9 | 0.213 | 93.9 | inactive
FAM114A1 (family with sequence similarity 114 member A1) | 2 | -0.907 | 63.9 | -0.254 | 76.3 | inactive
FAM114A1 (family with sequence similarity 114 member A1) | 3 | -0.197 | 78 | -0.396 | 96.7 | inactive
DAW1 (dynein assembly factor with WD repeats 1) | 1 | 2.06 | 123 | 1.1 | 103 | inactive
DAW1 (dynein assembly factor with WD repeats 1) | 2 | 2.51 | 132 | 1.83 | 91 | inactive
DAW1 (dynein assembly factor with WD repeats 1) | 3 | -0.244 | 77 | 0.233 | 81 | inactive
CTSG (cathepsin G) | 1 | -1.46 | 52.8 | -1.37 | 84.5 | inactive
CTSG (cathepsin G) | 2 | -0.706 | 67.8 | -0.609 | 89 | inactive
CTSG (cathepsin G) | 3 | 1.46 | 111 | 2.1 | 71.4 | inactive
MAFF (MAF bZIP transcription factor F) | 1 | -0.652 | 68.9 | -0.549 | 89 | inactive
MAFF (MAF bZIP transcription factor F) | 2 | -0.856 | 64.9 | -0.0862 | 74.1 | inactive
MAFF (MAF bZIP transcription factor F) | 3 | 0.185 | 85.6 | -0.383 | 106 | inactive
SLC24A4 | 1 | 0.956 | 101 | 0.71 | 93.5 | inactive
SLC24A4 | 2 | 0.466 | 91.2 | 0.951 | 79.3 | inactive
SLC24A4 | 3 | -0.772 | 66.5 | -1.09 | 99.1 | inactive
ADRM1 (ADRM1 26S proteasome ubiquitin receptor) | 1 | -0.98 | 62.4 | -1.11 | 93.4 | inactive
ADRM1 (ADRM1 26S proteasome ubiquitin receptor) | 2 | -0.0109 | 81.7 | -0.0949 | 93.6 | inactive
ADRM1 (ADRM1 26S proteasome ubiquitin receptor) | 3 | 0.116 | 84.2 | 0.43 | 84 | inactive
FBXL21P (F-box and leucine rich repeat protein 21, pseudogene) | 1 | 0.264 | 87.1 | 0.116 | 94.5 | inactive
FBXL21P (F-box and leucine rich repeat protein 21, pseudogene) | 2 | -0.449 | 73 | -0.637 | 96.4 | inactive
FBXL21P (F-box and leucine rich repeat protein 21, pseudogene) | 3 | -0.00427 | 81.8 | -0.0746 | 93.2 | inactive
ARHGAP12 (Rho GTPase activating protein 12) | 1 | 0.907 | 99.9 | -0.193 | 117 | inactive
ARHGAP12 (Rho GTPase activating protein 12) | 2 | -0.375 | 74.4 | -0.544 | 96 | inactive
ARHGAP12 (Rho GTPase activating protein 12) | 3 | 0.306 | 88 | -0.203 | 104 | inactive
CCNJ (cyclin J) | 1 | 0.301 | 87.9 | -0.216 | 104 | inactive
CCNJ (cyclin J) | 2 | 0.716 | 96.1 | 0.706 | 89.2 | inactive
CCNJ (cyclin J) | 3 | -0.358 | 74.8 | -0.29 | 90.2 | inactive
RYR3 (ryanodine receptor 3) | 1 | 0.235 | 86.6 | -0.271 | 104 | inactive
RYR3 (ryanodine receptor 3) | 2 | 0.502 | 91.9 | 0.411 | 92.1 | inactive
RYR3 (ryanodine receptor 3) | 3 | -0.197 | 78 | -1.02 | 114 | inactive

Sorted by “total luciferase, % of control” (high to low): some entries from above
Target gene | reagent | total luciferase, z-score | total luciferase, % of control | luciferase per cell, z-score | viable cells, % of control | call
CTSG (cathepsin G) | 3 | 1.46 | 111 | 2.1 | 71.4 | inactive
MAFF (MAF bZIP transcription factor F) | 3 | 0.185 | 85.6 | -0.383 | 106 | inactive
MAFF (MAF bZIP transcription factor F) | 1 | -0.652 | 68.9 | -0.549 | 89 | inactive
MAFF (MAF bZIP transcription factor F) | 2 | -0.856 | 64.9 | -0.0862 | 74.1 | inactive

Further records follow:
Target gene | reagent | total luciferase, z-score | total luciferase, % of control | luciferase per cell, z-score | viable cells, % of control | call
SEMA5B (semaphorin 5B) | 1 | -2.28 | 36.6 | -2.58 | 80.5 | inactive
SEMA5B (semaphorin 5B) | 2 | -0.971 | 62.6 | -0.262 | 74.9 | inactive
SEMA5B (semaphorin 5B) | 3 | -0.873 | 64.5 | -1.4 | 104 | inactive
LPAR6 (lysophosphatidic acid receptor 6) | 1 | 0.257 | 87 | 0.0637 | 95.6 | inactive
LPAR6 (lysophosphatidic acid receptor 6) | 2 | 0.25 | 86.9 | 0.242 | 91.1 | inactive
LPAR6 (lysophosphatidic acid receptor 6) | 3 | -0.148 | 78.9 | -0.107 | 90.7 | inactive
SCAF1 (SR-related CTD associated factor 1) | 1 | 0.214 | 86.1 | -0.262 | 103 | inactive
SCAF1 (SR-related CTD associated factor 1) | 2 | -0.396 | 74 | -0.351 | 90.7 | inactive
SCAF1 (SR-related CTD associated factor 1) | 3 | 1.56 | 113 | 1.3 | 89.6 | inactive
PLK1 (polo like kinase 1) | 1 | -2.28 | 36.5 | 0.694 | 33.9 | inactive
PLK1 (polo like kinase 1) | 2 | -2.07 | 40.7 | 0.314 | 41.9 | inactive
PLK1 (polo like kinase 1) | 3 | -2.2 | 38.2 | -0.222 | 45.2 | inactive
IER2 (immediate early response 2) | 1 | -1.88 | 44.5 | -1.57 | 75.2 | inactive
IER2 (immediate early response 2) | 2 | -0.000997 | 81.9 | 0.329 | 83.9 | inactive
IER2 (immediate early response 2) | 3 | -1.59 | 50.3 | -0.787 | 69.2 | inactive
IPO7 (importin 7) | 1 | 0.135 | 84.6 | -0.12 | 97.5 | inactive
IPO7 (importin 7) | 2 | 1.27 | 107 | 0.664 | 100 | inactive
IPO7 (importin 7) | 3 | -0.0924 | 80 | 0.0179 | 89 | inactive
MUL1 (mitochondrial E3 ubiquitin protein ligase 1) | 1 | -0.421 | 73.5 | 0.16 | 78.8 | inactive
MUL1 (mitochondrial E3 ubiquitin protein ligase 1) | 2 | -1.32 | 55.6 | -1.19 | 84.8 | inactive
MUL1 (mitochondrial E3 ubiquitin protein ligase 1) | 3 | -0.206 | 77.8 | -0.628 | 103 | inactive
EAPP (E2F associated phosphoprotein) | 1 | -0.296 | 76 | -0.798 | 105 | inactive
EAPP (E2F associated phosphoprotein) | 2 | 0.238 | 86.6 | -0.0155 | 97.2 | inactive
EAPP (E2F associated phosphoprotein) | 3 | -0.733 | 67.3 | -0.447 | 84.6 | inactive
